Experimental data from publication PMC10620153, “ARF1 prevents aberrant type I interferon induction by regulating STING activation and recycling” (Nature Communications, 2023).
No constants are given. Whether binding was seen depends on the method and setting. In cells and extracts the contact can be indirect. These calls come from enrichment with a bait or labelling near it, and not all partners need be listed.

Protein sequences, listed by entry. Tags and fused reporters are not part of them.
UniProt P84077: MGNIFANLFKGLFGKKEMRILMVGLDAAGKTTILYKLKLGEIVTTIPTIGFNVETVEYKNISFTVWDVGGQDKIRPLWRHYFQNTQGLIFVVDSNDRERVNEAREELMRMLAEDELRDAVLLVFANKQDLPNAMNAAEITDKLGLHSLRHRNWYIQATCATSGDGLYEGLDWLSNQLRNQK

Each binder was assayed against human ARF1 wild type, myc-FLAG tagged (pCMV6-hARF1-myc-FLAG) (human) (UniProt P84077) (assay: affinity purification with mass spectrometry; SILAC: ARF1 WT in heavy-labelled, ARF1 R99C in light-labelled HEK293T cells; lysates in 150 mM NaCl, 50 mM HEPES pH 7.4, 1% Triton X-100, 5 mM EDTA; anti-FLAG M2 magnetic beads 4 h at 4 °C, five washes; samples combined 1-to-1; mean of two replicates).

Row | Binder | binding
1 | COPA (natural protein, human (endogenous in HEK293T), UniProt P53621 1-1224, looked up, Coatomer subunit alpha (COPA), component of the COPI complex, endogenous in HEK293T cells; also called alpha-COP; coatomer protein subunit alpha; source: endogenous, HEK293T lysate) MLTKFETKSARVKGLSFHPKRPWILTSLHNGVIQLWDYRMCTLIDKFDEHDGPVRGIDFHKQQPLFVSGGDDYKIKVWNYKLRRCLFTLLGHLDYIRTTFFHHEYPWILSASDDQTIRVWNWQSRTCVCVLTGHNHYVMCAQFHPTEDLVVSASLDQTVRVWDISGLRKKNLSPGAVESDVRGITGVDLFGTTDAVVKHVLEGHDRGVNWAAFHPTMPLIVSGADDRQVKIWRMNESKAWEVDTCRGHYNNVSCAVFHPRQELILSNSEDKSIRVWDMSKRTGVQTFRRDHDRFWVLAAHPNLNLFAAGHDGGMIVFKLERERPAYAVHGNMLHYVKDRFLRQLDFNSSKDVAVMQLRSGSKFPVFNMSYNPAENAVLLCTRASNLENSTYDLYTIPKDADSQNPDAPEGKRSSGLTAVWVARNRFAVLDRMHSLLIKNLKNEITKKVQVPNCDEIFYAGTGNLLLRDADSITLFDVQQKRTLASVKISKVKYVIWSADMSHVALLAKHAIVICNRKLDALCNIHENIRVKSGAWDESGVFIYTTSNHIKYAVTTGDHGIIRTLDLPIYVTRVKGNNVYCLDRECRPRVLTIDPTEFKFKLALINRKYDEVLHMVRNAKLVGQSIIAYLQKKGYPEVALHFVKDEKTRFSLALECGNIEIALEAAKALDDKNCWEKLGEVALLQGNHQIVEMCYQRTKNFDKLSFLYLITGNLEKLRKMMKIAEIRKDMSGHYQNALYLGDVSERVRILKNCGQKSLAYLTAATHGLDEEAESLKETFDPEKETIPDIDPNAKLLQPPAPIMPLDTNWPLLTVSKGFFEGTIASKGKGGALAADIDIDTVGTEGWGEDAELQLDEDGFVEATEGLGDDALGKGQEEGGGWDVEEDLELPPELDISPGAAGGAEDGFFVPPTKGTSPTQIWCNNSQLPVDHILAGSFETAMRLLHDQVGVIQFGPYKQLFLQTYARGRTTYQALPCLPSMYGYPNRNWKDAGLKNGVPAVGLKLNDLIQRLQLCYQLTTVGKFEEAVEKFRSILLSVPLLVVDNKQEIAEAQQLITICREYIVGLSVETERKKLPKETLEQQKRICEMAAYFTHSNLQPVHMILVLRTALNLFFKLKNFKTAATFARRLLELGPKPEVAQQTRKILSACEKNPTDAYQLNYDMHNPFDICAASYRPIYRGKPVEKCPLSGACYSPEFKGQICRVTTVTEIGKDVIGLRISPLQFR | binds
2 | COPB1 (natural protein, human (endogenous in HEK293T), UniProt P53618 1-953, looked up, Coatomer subunit beta (COPB1), component of the COPI complex, endogenous in HEK293T cells; detected in the co-IP with anti-COPB (Abcam Ab2899); The co-IP names the protein only as COPB; also called beta-COP; source: endogenous, HEK293T lysate) MTAAENVCYTLINVPMDSEPPSEISLKNDLEKGDVKSKTEALKKVIIMILNGEKLPGLLMTIIRFVLPLQDHTIKKLLLVFWEIVPKTTPDGRLLHEMILVCDAYRKDLQHPNEFIRGSTLRFLCKLKEAELLEPLMPAIRACLEHRHSYVRRNAVLAIYTIYRNFEHLIPDAPELIHDFLVNEKDASCKRNAFMMLIHADQDRALDYLSTCIDQVQTFGDILQLVIVELIYKVCHANPSERARFIRCIYNLLQSSSPAVKYEAAGTLVTLSSAPTAIKAAAQCYIDLIIKESDNNVKLIVLDRLIELKEHPAHERVLQDLVMDILRVLSTPDLEVRKKTLQLALDLVSSRNVEELVIVLKKEVIKTNNVSEHEDTDKYRQLLVRTLHSCSVRFPDMAANVIPVLMEFLSDNNEAAAADVLEFVREAIQRFDNLRMLIVEKMLEVFHAIKSVKIYRGALWILGEYCSTKEDIQSVMTEIRRSLGEIPIVESEIKKEAGELKPEEEITVGPVQKLVTEMGTYATQSALSSSRPTKKEEDRPPLRGFLLDGDFFVAASLATTLTKIALRYVALVQEKKKQNSFVAEAMLLMATILHLGKSSLPKKPITDDDVDRISLCLKVLSECSPLMNDIFNKECRQSLSHMLSAKLEEEKLSQKKESEKRNVTVQPDDPISFMQLTAKNEMNCKEDQFQLSLLAAMGNTQRKEAADPLASKLNKVTQLTGFSDPVYAEAYVHVNQYDIVLDVLVVNQTSDTLQNCTLELATLGDLKLVEKPSPLTLAPHDFANIKANVKVASTENGIIFGNIVYDVSGAASDRNCVVLSDIHIDIMDYIQPATCTDAEFRQMWAEFEWENKVTVNTNMVDLNDYLQHILKSTNMKCLTPEKALSGYCGFMAANLYARSIFGEDALANVSIEKPIHQGPDAAVTGHIRIRAKSQGMALSLGDKINLSQKKTSI | binds

Now from value to binder:

Row | binding | Binder
3 | binds | COPG1 (natural protein, human (endogenous in HEK293T), UniProt Q9Y678 1-874, looked up, Coatomer subunit gamma-1 (COPG1), component of the COPI complex, endogenous in HEK293T cells; also called gamma-COP; source: endogenous, HEK293T lysate) MLKKFDKKDEESGGGSNPFQHLEKSAVLQEARVFNETPINPRKCAHILTKILYLINQGEHLGTTEATEAFFAMTKLFQSNDPTLRRMCYLTIKEMSCIAEDVIIVTSSLTKDMTGKEDNYRGPAVRALCQITDSTMLQAIERYMKQAIVDKVPSVSSSALVSSLHLLKCSFDVVKRWVNEAQEAASSDNIMVQYHALGLLYHVRKNDRLAVNKMISKVTRHGLKSPFAYCMMIRVASKQLEEEDGSRDSPLFDFIESCLRNKHEMVVYEAASAIVNLPGCSAKELAPAVSVLQLFCSSPKAALRYAAVRTLNKVAMKHPSAVTACNLDLENLVTDSNRSIATLAITTLLKTGSESSIDRLMKQISSFMSEISDEFKVVVVQAISALCQKYPRKHAVLMNFLFTMLREEGGFEYKRAIVDCIISIIEENSESKETGLSHLCEFIEDCEFTVLATRILHLLGQEGPKTTNPSKYIRFIYNRVVLEHEEVRAGAVSALAKFGAQNEEMLPSILVLLKRCVMDDDNEVRDRATFYLNVLEQKQKALNAGYILNGLTVSIPGLERALQQYTLEPSEKPFDLKSVPLATAPMAEQRTESTPITAVKQPEKVAATRQEIFQEQLAAVPEFRGLGPLFKSSPEPVALTESETEYVIRCTKHTFTNHMVFQFDCTNTLNDQTLENVTVQMEPTEAYEVLCYVPARSLPYNQPGTCYTLVALPKEDPTAVACTFSCMMKFTVKDCDPTTGETDDEGYEDEYVLEDLEVTVADHIQKVMKLNFEAAWDEVGDEFEKEETFTLSTIKTLEEAVGNIVKFLGMHPCERSDKVPDNKNTHTLLLAGVFRGGHDILVRSRLLLLDTVTMQVTARSLEELPVDIILASVG
4 | binds | COPB2 (natural protein, human (endogenous in HEK293T), UniProt P35606 1-906, looked up, Coatomer subunit beta' (COPB2), component of the COPI complex, endogenous in HEK293T cells; also called beta'-COP; source: endogenous, HEK293T lysate) MPLRLDIKRKLTARSDRVKSVDLHPTEPWMLASLYNGSVCVWNHETQTLVKTFEVCDLPVRAAKFVARKNWVVTGADDMQIRVFNYNTLERVHMFEAHSDYIRCIAVHPTQPFILTSSDDMLIKLWDWDKKWSCSQVFEGHTHYVMQIVINPKDNNQFASASLDRTIKVWQLGSSSPNFTLEGHEKGVNCIDYYSGGDKPYLISGADDRLVKIWDYQNKTCVQTLEGHAQNVSCASFHPELPIIITGSEDGTVRIWHSSTYRLESTLNYGMERVWCVASLRGSNNVALGYDEGSIIVKLGREEPAMSMDANGKIIWAKHSEVQQANLKAMGDAEIKDGERLPLAVKDMGSCEIYPQTIQHNPNGRFVVVCGDGEYIIYTAMALRNKSFGSAQEFAWAHDSSEYAIRESNSIVKIFKNFKEKKSFKPDFGAESIYGGFLLGVRSVNGLAFYDWDNTELIRRIEIQPKHIFWSDSGELVCIATEESFFILKYLSEKVLAAQETHEGVTEDGIEDAFEVLGEIQEIVKTGLWVGDCFIYTSSVNRLNYYVGGEIVTIAHLDRTMYLLGYIPKDNRLYLGDKELNIISYSLLVSVLEYQTAVMRRDFSMADKVLPTIPKEQRTRVAHFLEKQGFKQQALTVSTDPEHRFELALQLGELKIAYQLAVEAESEQKWKQLAELAISKCQFGLAQECLHHAQDYGGLLLLATASGNANMVNKLAEGAERDGKNNVAFMSYFLQGKVDACLELLIRTGRLPEAAFLARTYLPSQVSRVVKLWRENLSKVNQKAAESLADPTEYENLFPGLKEAFVVEEWVKETHADLWPAKQYPLVTPNEERNVMEEGKDFQPSRSTAQQELDGKPASPTPVIVASHTANKEEKSLLELEVDLDNLELEDIDTTDINLDEDILDD
